{"source": "PubChem BioAssay AID504791 | Drosophila RNAi Screening Center, 2011", "assay": "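Factors in Argonaute-based small RNA production and activity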 (primary screen)", "system": "Drosophila S2-derived reporter cells", "reagent": "long dsRNA against Drosophila genes, about 150-250 ng dsRNA per well (siRNA assay); about 80-120 ng (miRNA assay)", "time to read-out": "about 5 days (siRNA assay); about 4 days (miRNA assay)", "challenge": "copper sulfate induction of reporters: 25 µM (siRNA assay); 200 mM stated (miRNA assay), 1-2 days before reading", "measured": "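Per-well ratio of Renilla over firefly light, expressed relative to that plate's average ratio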", "reading the numbers": "siRNA reporter hit score: higher = 3 marks a strong hit with raised ratio; -3 a strong hit with lowered ratio", "rule for the call": "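First-pass picks had plate-scaled ratios over 1.5 for the siRNA assay, over 1.6 for the miRNA assay, or under 0.6; two distinct dsRNAs had to score alike on retest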", "note": "The screen tested about 23,000 reagents; shown is an unselected part of those that have a named target and a result. In the full data, 199 (0.86%) are marked active. 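Plate-scaled ratios behind the calls are not deposited; printed light signals are raw; many rows marked increased or decreased are still called inactive.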 Unmarked entries are inactive. Reagents against one gene are numbered here."}
{"gene": "Obp49a (GeneID 36399)", "reagent": 1, "stable assay Renilla, run 1 (luminescence)": 5288, "stable assay firefly, run 1 (luminescence)": 4.28e5}
{"gene": "Rh2 (GeneID 42261)", "reagent": 1, "stable assay Renilla, run 1 (luminescence)": 7907, "stable assay firefly, run 1 (luminescence)": 4.14e5}
{"gene": "CG12824 (GeneID 35727)", "reagent": 1, "stable assay Renilla, run 1 (luminescence)": 6474, "stable assay firefly, run 1 (luminescence)": 4.26e5}
{"gene": "CG12118 (GeneID 31857)", "reagent": 1, "stable assay Renilla, run 1 (luminescence)": 7427, "stable assay firefly, run 1 (luminescence)": 4.46e5}
{"gene": "Svip (GeneID 317834)", "reagent": 1, "stable assay Renilla, run 1 (luminescence)": 3807, "stable assay firefly, run 1 (luminescence)": 3.26e5}
{"gene": "CG15800 (GeneID 37763)", "reagent": 1, "stable assay Renilla, run 1 (luminescence)": 6683, "stable assay firefly, run 1 (luminescence)": 3.61e5}
{"gene": "polyph (GeneID 36161)", "reagent": 1, "stable assay Renilla, run 1 (luminescence)": 6287, "stable assay firefly, run 1 (luminescence)": 3.49e5}
{"gene": "obst-H (GeneID 39681)", "reagent": 1, "stable assay Renilla, run 1 (luminescence)": 6399, "stable assay firefly, run 1 (luminescence)": 3.68e5}
{"gene": "obst-H (GeneID 39681)", "reagent": 2, "stable assay Renilla, run 1 (luminescence)": 6296, "stable assay firefly, run 1 (luminescence)": 3.71e5}
{"gene": "CG13659 (GeneID 43059)", "reagent": 1, "stable assay Renilla, run 1 (luminescence)": 7521, "stable assay firefly, run 1 (luminescence)": 3.37e5}
{"gene": "mRpL13 (GeneID 35145)", "reagent": 1, "stable assay Renilla, run 1 (luminescence)": 6976, "stable assay firefly, run 1 (luminescence)": 4.76e5}
{"gene": "Ktch (GeneID 43681)", "reagent": 1, "stable assay Renilla, run 1 (luminescence)": 5207, "stable assay firefly, run 1 (luminescence)": 3.61e5}
{"gene": "RpS8 (GeneID 43532)", "reagent": 1, "siRNA reporter hit score": 3, "stable assay Renilla, run 1 (luminescence)": 5915, "stable assay firefly, run 1 (luminescence)": 3.44e5}
{"gene": "CG9624 (GeneID 41730)", "reagent": 1, "stable assay Renilla, run 1 (luminescence)": 8206, "stable assay firefly, run 1 (luminescence)": 5.58e5}
{"gene": "CG8925 (GeneID 41963)", "reagent": 1, "stable assay Renilla, run 1 (luminescence)": 7252, "stable assay firefly, run 1 (luminescence)": 3.95e5}
{"gene": "CG8925 (GeneID 41963)", "reagent": 2, "stable assay Renilla, run 1 (luminescence)": 6710, "stable assay firefly, run 1 (luminescence)": 3.28e5}
{"gene": "CG8925 (GeneID 41963)", "reagent": 3, "stable assay Renilla, run 1 (luminescence)": 7616, "stable assay firefly, run 1 (luminescence)": 3.52e5}
{"gene": "l(2)34Fc (GeneID 34838)", "reagent": 1, "stable assay Renilla, run 1 (luminescence)": 7584, "stable assay firefly, run 1 (luminescence)": 3.22e5}
{"gene": "bora (GeneID 40031)", "reagent": 1, "miRNA reporter change": "reporter ratio raised past the hit cutoff (active)", "stable assay Renilla, run 1 (luminescence)": 9318, "stable assay firefly, run 1 (luminescence)": 3.20e5}

Entries above whose gene name begins with R or r:
{"gene": "Rh2 (GeneID 42261)", "reagent": 1, "stable assay Renilla, run 1 (luminescence)": 7907, "stable assay firefly, run 1 (luminescence)": 4.14e5}
{"gene": "RpS8 (GeneID 43532)", "reagent": 1, "siRNA reporter hit score": 3, "stable assay Renilla, run 1 (luminescence)": 5915, "stable assay firefly, run 1 (luminescence)": 3.44e5}
